Some of the results follow.

The chains behind the UniProt entries cited, without tags or fusion partners.
UniProt Q0JBA9, entry or part of it: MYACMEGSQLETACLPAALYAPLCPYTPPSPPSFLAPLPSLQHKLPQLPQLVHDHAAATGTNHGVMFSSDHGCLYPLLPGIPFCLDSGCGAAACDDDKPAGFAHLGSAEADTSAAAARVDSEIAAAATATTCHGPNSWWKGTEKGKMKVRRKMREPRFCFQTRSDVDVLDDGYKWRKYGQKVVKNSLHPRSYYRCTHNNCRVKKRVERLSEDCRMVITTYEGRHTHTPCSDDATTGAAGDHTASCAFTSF

This test addresses OsWRKY34 (Oryza sativa, UniProt Q0JBA9 1-250). In words: protein-binding microarray (RPBM); PBS, 2% BSA, 51.3 ng/ul salmon testes DNA, 50 uM zinc acetate, 200 nM TF, 25 C, 1 h; high values mean tight binding. The settings on record: protein: recombinant; tags: N-terminal polyhistidine and DsRed monomer fusion (pET32a); label: CyDye5-dUTP incorporated in the synthesized complementary strand; 3' TTTTT single-stranded linker to array surface; dsDNA, one strand shown. In short, it runs like this:
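Ni–NTA purification followed expression in E. coli BL21-CodonPlus of transcription factors fused N-terminally to a polyhistidine tag and DsRed. At 200 nM in PBS with 2% BSA, salmon testes DNA and 50 µM zinc acetate, the protein was incubated for 1 h at 25 °C with a custom Agilent array that had been primer-extended with Cy5-dUTP and blocked with 2% BSA. After washing, the array was read on an Axon 4000B scanner. The binding signal is per-feature fluorescence intensity in arbitrary units.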
“TCGCTTACACACAAATACACACCTCTCCCTTTCTTCTTCCCGGAGTCACCTAGTGCAG”: the binding signal is 9260 fluorescence intensity (a.u.).

Turning to “TCTCGTCCTTCTGTGGCCGGGAGGGGCGCGGTTTCTGCCGCGGAGTCACCTAGTGCAG”, the binding signal was 9030 fluorescence intensity (a.u.).

As to “GTCATCCTCTCCATCCCCTCGTCGTCGTCCGCTCGCCTCTCGGAGTCACCTAGTGCAG”, the binding signal is 8250 fluorescence intensity (a.u.).

Regarding “CTGTATGTGCTCCGTCTGTTTTACTGTTCCGTCACGTGTCCGGAGTCACCTAGTGCAG”, the binding signal was 9770 fluorescence intensity (a.u.).

On to “AGTGGAGTACTATTTTCCCATTTCATCCAACCATTGCATTCGGAGTCACCTAGTGCAG”, for which the binding signal is 9030 fluorescence intensity (a.u.).

For “CTGTTTCTTTGTTGCGCATTGAATCGATCTAGGTTAGTACCGGAGTCACCTAGTGCAG”, the binding signal was 12700 fluorescence intensity (a.u.).

On to “ATACATGTGGTTTCATACAACTTTTACCATAAAATATGATCGGAGTCACCTAGTGCAG”, for which the binding signal was 8350 fluorescence intensity (a.u.).

In the case of “TGCAATCCTCTGTTTTAAACTTACATTCTTGTCATAATTCCGGAGTCACCTAGTGCAG”, the binding signal was 8360 fluorescence intensity (a.u.).

In the case of “AAAGTGTATTTGTATTCTGTTTTTTTCACCCTTTGTATATCGGAGTCACCTAGTGCAG”, the binding signal is 8590 fluorescence intensity (a.u.).

Consider “CCTCCCTCCTTTCTCGCGCCCGCGCCTCCTGAAACTGGGACGGAGTCACCTAGTGCAG”, for which the binding signal was 8470 fluorescence intensity (a.u.).

Regarding “ATTCTTTTTCTTTTCTTCTTTCTTCCTTATTCTTTTCTCCCGGAGTCACCTAGTGCAG”, the binding signal is 10100 fluorescence intensity (a.u.).

Regarding “GATTACATTTCAATTCAATTTCAATCCCATTCACTTTTGCCGGAGTCACCTAGTGCAG”, the binding signal was 8710 fluorescence intensity (a.u.).

Regarding “CACTACCTGCGCGCTCGCTCCACCCCGCGCCCTAATCTCCCGGAGTCACCTAGTGCAG”, the binding signal is 8720 fluorescence intensity (a.u.).

For “GCTCTCGCTGACGCTGCCGCTCCGCCTGCCTCCGCCCGCGCGGAGTCACCTAGTGCAG”, the binding signal was 10600 fluorescence intensity (a.u.).

“GCCTGTGTTACTTACTACTCGACCCTTGCCTTGACGTCAACGGAGTCACCTAGTGCAG”: the binding signal was 13200 fluorescence intensity (a.u.).

For “TCTCTTCTCTTCTTCCGCGACACGTCTTCGCCGCCGCCGCCGGAGTCACCTAGTGCAG”, the binding signal is 8440 fluorescence intensity (a.u.).

For the sequence “GGTAATTGATCGATCCTTGACTTCTTAATGCATATTATTGCGGAGTCACCTAGTGCAG”, the binding signal was 9030 fluorescence intensity (a.u.).

For the sequence “ATTCCTCCGCCACAACACCACGCTGACCACAGTCCACCGTCGGAGTCACCTAGTGCAG”, the binding signal was 8360 fluorescence intensity (a.u.).

Consider “TATTCCTTTCATTGGGTTTGTGCGGGATGGCTGGTTGGTGCGGAGTCACCTAGTGCAG”, for which the binding signal was 18100 fluorescence intensity (a.u.).

Turning to “GTTTCAAAATATTTGACACCGTTGACTTTTTAGTACGTGTCGGAGTCACCTAGTGCAG”, the binding signal was 19100 fluorescence intensity (a.u.).

Regarding “AGGAGCGGGGAGAGTGTCGCGGTGTTGTCAGGGTGAGGGGCGGAGTCACCTAGTGCAG”, the binding signal was 12100 fluorescence intensity (a.u.).

With “TCCATCTTCTTTGTCTATGTTAGCACCGATTTCAGTCAGCCGGAGTCACCTAGTGCAG”, the binding signal is 12600 fluorescence intensity (a.u.).

Regarding “CCGCACCCTGGCCCTCTTGGTCTTCAATTCTTGGTTAGCACGGAGTCACCTAGTGCAG”, the binding signal was 8270 fluorescence intensity (a.u.).

On to “ATGCAGTGTGATTTTAGGTGATTACTACTCCATTCTTGCTCGGAGTCACCTAGTGCAG”, for which the binding signal was 10200 fluorescence intensity (a.u.).

Consider “GCCTTTTCTCTGTCTATTTCAGCACCTCATCGATTTTTTTCGGAGTCACCTAGTGCAG”, for which the binding signal was 15800 fluorescence intensity (a.u.).

For the sequence “GGATTGGTCATTATTTTTTTTTTCTGCTGTTGGGATGATCCGGAGTCACCTAGTGCAG”, the binding signal is 8530 fluorescence intensity (a.u.).

Consider “CTCTCTCTCTACTCTTCTCTTCTCTCTCCTTTTGTTGCTTCGGAGTCACCTAGTGCAG”, for which the binding signal was 11000 fluorescence intensity (a.u.).

In the case of “ATGTCAACTTTCTCATTTTCTTTTTCTTTCCACAGTGTGACGGAGTCACCTAGTGCAG”, the binding signal is 10500 fluorescence intensity (a.u.).

On to “TTATGGCCTGCTGTGCTTTGCTTGGGATGGGTTTCTTCGGCGGAGTCACCTAGTGCAG”, for which the binding signal is 13400 fluorescence intensity (a.u.).

For “GTACATGCCCCATACCCATTATCCTCTTGTTTTTGTCTCCCGGAGTCACCTAGTGCAG”, the binding signal is 8560 fluorescence intensity (a.u.).

With “GGCGACTGATTTGCTGGCATGCGTAATTTTTGGCCGGTGACGGAGTCACCTAGTGCAG”, the binding signal is 9720 fluorescence intensity (a.u.).

As to “CTACATCTTGGACGACCGCGTCTTCTTTCCTCCATGCATGCGGAGTCACCTAGTGCAG”, the binding signal was 9960 fluorescence intensity (a.u.).

Regarding “CCACTTCACTTGGGCTCTTGTACATGCCTCCTTTCATCAACGGAGTCACCTAGTGCAG”, the binding signal was 12100 fluorescence intensity (a.u.).

As to “ATTCTAAGTCCCTGTCACATCGGATGTTTGGCACTAATTTCGGAGTCACCTAGTGCAG”, the binding signal is 8490 fluorescence intensity (a.u.).

Consider “GTTTGCATTAGCTTCATTTCGGTTGTAATCCCAGAGTTTGCGGAGTCACCTAGTGCAG”, for which the binding signal was 8220 fluorescence intensity (a.u.).

Turning to “CCACTTGACTCTCTCCACTCGCCTTCGCTTTCCACTTCTACGGAGTCACCTAGTGCAG”, the binding signal was 12900 fluorescence intensity (a.u.).

With “AATCAGTCCGACAAATTTCCTGTGGTTTTTCAATCCCTTTCGGAGTCACCTAGTGCAG”, the binding signal is 10500 fluorescence intensity (a.u.).

For “CCGGAGGAGGAGGGGAGGGTGCGGCCGGCGGCCCTTGCCGCGGAGTCACCTAGTGCAG”, the binding signal was 9840 fluorescence intensity (a.u.).

For the sequence “CATACGGTAATTTTCTGGTTTGTTTTTGCACTATATATTTCGGAGTCACCTAGTGCAG”, the binding signal is 12100 fluorescence intensity (a.u.).

Consider “GTCAAACATGTGCTAAAAAGTCAACGGTGTCAAACATTTCCGGAGTCACCTAGTGCAG”, for which the binding signal is 17400 fluorescence intensity (a.u.).

Take “TTTTGGATTCTTTGGGCTGTTGCAATTTCACTTGTTTTCGCGGAGTCACCTAGTGCAG”: the binding signal was 9130 fluorescence intensity (a.u.).

In the case of “TAACCGATTTCAGAATATGTTTATGCTCCACTTTTGTTTTCGGAGTCACCTAGTGCAG”, the binding signal is 8530 fluorescence intensity (a.u.).

Values taken from PMC7819943, “Rice protein-binding microarrays: a tool to detect cis-acting elements near promoter regions in rice”.
